From article PMC7487766

The chains behind the UniProt entries cited, without tags or fusion partners. Where a name states a change or a piece, a line headed by the entry shows the natural chain unless it says otherwise. Residues count along the entry.
UniProt A0A509AEX0: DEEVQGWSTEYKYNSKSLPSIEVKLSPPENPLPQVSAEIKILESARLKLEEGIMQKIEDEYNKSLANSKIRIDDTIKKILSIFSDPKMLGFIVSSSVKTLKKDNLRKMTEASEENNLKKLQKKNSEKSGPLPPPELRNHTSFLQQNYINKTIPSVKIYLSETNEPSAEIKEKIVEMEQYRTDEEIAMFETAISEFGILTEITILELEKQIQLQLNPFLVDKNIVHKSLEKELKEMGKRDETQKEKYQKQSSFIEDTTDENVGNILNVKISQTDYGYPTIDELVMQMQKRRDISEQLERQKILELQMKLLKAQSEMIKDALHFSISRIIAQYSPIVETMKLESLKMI
UniProt A0A509AJL0: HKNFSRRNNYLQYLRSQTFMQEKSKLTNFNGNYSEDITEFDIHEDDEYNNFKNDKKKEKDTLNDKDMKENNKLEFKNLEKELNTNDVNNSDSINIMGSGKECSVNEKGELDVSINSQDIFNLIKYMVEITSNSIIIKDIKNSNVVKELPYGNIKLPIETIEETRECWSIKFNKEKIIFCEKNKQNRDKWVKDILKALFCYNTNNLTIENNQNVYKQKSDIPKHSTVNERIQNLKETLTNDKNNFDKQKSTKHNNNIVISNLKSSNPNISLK
UniProt A0A509AJG0, residues 22-651: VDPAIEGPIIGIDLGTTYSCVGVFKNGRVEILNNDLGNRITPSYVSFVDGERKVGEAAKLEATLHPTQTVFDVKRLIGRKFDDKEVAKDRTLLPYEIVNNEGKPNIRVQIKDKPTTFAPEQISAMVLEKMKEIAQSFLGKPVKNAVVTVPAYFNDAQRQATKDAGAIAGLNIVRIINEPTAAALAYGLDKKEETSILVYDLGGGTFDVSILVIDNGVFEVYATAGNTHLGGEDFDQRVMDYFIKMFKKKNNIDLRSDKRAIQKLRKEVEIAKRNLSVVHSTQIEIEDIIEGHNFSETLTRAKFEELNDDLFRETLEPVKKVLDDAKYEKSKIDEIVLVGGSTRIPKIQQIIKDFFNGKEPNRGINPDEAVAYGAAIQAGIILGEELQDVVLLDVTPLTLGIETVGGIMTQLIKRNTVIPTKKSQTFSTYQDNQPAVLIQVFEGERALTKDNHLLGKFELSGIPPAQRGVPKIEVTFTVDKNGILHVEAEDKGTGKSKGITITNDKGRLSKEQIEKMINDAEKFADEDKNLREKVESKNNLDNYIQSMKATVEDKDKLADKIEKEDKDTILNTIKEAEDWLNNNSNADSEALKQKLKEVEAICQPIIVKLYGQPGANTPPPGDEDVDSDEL
UniProt A0A509ANB6: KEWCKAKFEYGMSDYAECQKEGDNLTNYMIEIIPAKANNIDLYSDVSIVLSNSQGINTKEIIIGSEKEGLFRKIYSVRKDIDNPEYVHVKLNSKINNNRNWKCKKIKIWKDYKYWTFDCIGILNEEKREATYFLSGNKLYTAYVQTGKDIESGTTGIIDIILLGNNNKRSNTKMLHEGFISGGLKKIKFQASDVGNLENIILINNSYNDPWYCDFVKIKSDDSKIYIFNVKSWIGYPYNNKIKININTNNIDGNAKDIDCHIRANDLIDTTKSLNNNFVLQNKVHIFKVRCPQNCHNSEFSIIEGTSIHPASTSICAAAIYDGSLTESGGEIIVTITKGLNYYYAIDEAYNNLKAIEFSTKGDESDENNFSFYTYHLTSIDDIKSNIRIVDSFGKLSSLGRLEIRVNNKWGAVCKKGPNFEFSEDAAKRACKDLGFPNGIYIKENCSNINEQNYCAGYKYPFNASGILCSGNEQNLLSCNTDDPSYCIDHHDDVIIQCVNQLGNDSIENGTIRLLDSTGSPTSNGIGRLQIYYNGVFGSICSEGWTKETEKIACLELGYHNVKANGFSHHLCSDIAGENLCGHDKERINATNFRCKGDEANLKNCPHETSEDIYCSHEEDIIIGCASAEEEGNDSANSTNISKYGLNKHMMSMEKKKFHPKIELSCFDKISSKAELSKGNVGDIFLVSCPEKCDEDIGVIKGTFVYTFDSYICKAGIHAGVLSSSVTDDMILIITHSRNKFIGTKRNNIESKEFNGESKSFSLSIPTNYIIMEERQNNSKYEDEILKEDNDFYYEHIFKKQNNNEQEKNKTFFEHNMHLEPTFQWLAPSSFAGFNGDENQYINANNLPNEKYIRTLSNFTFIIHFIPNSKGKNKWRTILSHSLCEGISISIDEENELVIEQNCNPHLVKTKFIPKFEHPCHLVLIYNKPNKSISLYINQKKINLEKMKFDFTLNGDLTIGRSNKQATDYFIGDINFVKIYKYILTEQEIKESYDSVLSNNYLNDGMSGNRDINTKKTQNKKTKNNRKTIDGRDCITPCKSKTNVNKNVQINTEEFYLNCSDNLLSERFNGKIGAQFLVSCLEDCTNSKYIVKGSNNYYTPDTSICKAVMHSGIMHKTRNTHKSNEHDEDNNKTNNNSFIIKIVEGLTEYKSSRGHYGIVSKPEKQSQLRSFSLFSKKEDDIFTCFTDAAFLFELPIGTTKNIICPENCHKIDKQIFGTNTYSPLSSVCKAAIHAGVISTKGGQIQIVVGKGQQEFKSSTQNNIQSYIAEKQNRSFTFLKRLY
UniProt A0A509ALX4: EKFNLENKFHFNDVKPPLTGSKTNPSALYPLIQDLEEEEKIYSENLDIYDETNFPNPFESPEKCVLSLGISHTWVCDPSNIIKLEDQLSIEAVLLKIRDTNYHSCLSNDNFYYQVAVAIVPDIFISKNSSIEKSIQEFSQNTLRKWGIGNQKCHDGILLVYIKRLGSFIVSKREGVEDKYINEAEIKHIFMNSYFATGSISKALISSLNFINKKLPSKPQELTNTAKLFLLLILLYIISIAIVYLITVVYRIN
UniProt A0A509AFS2: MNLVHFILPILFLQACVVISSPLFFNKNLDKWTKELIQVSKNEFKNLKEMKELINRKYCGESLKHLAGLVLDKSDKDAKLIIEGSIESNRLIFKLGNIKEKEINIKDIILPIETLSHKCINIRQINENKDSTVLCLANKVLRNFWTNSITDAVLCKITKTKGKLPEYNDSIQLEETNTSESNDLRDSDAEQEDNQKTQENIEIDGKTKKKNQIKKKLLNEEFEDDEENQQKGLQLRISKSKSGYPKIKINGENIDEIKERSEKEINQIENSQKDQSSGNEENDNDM
UniProt A0A509AML0: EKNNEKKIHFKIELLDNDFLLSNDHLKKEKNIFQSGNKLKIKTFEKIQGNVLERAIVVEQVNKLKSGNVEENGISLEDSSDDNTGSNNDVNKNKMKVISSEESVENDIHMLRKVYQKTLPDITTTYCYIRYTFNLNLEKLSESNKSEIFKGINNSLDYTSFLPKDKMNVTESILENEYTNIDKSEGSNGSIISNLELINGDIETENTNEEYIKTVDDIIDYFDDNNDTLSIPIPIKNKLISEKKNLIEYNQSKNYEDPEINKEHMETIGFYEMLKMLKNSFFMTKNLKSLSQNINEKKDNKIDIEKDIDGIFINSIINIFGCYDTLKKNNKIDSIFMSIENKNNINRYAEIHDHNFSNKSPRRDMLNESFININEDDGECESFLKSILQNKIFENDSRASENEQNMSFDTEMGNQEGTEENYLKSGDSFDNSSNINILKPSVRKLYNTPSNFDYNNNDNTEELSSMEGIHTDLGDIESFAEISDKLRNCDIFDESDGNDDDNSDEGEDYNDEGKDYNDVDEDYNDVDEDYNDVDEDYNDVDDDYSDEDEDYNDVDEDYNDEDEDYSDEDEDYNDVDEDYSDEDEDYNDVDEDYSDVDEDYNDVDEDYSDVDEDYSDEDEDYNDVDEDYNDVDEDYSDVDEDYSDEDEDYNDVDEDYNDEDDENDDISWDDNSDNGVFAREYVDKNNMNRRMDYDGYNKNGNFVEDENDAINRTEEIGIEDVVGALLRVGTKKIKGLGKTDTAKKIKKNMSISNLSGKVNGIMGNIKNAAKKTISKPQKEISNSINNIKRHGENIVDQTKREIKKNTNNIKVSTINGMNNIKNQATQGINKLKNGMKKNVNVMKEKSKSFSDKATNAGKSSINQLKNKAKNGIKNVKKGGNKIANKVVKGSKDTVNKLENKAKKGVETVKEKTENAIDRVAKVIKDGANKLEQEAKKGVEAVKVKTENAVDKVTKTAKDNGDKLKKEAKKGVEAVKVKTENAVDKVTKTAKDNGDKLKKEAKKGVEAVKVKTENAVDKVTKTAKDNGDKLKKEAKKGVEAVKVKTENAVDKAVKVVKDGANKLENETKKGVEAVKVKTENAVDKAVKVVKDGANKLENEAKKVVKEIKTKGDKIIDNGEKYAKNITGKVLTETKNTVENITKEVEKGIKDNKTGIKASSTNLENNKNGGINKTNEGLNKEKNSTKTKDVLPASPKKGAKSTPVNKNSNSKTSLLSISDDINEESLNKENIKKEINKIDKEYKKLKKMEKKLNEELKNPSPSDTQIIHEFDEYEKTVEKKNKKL
UniProt A0A509ASW0: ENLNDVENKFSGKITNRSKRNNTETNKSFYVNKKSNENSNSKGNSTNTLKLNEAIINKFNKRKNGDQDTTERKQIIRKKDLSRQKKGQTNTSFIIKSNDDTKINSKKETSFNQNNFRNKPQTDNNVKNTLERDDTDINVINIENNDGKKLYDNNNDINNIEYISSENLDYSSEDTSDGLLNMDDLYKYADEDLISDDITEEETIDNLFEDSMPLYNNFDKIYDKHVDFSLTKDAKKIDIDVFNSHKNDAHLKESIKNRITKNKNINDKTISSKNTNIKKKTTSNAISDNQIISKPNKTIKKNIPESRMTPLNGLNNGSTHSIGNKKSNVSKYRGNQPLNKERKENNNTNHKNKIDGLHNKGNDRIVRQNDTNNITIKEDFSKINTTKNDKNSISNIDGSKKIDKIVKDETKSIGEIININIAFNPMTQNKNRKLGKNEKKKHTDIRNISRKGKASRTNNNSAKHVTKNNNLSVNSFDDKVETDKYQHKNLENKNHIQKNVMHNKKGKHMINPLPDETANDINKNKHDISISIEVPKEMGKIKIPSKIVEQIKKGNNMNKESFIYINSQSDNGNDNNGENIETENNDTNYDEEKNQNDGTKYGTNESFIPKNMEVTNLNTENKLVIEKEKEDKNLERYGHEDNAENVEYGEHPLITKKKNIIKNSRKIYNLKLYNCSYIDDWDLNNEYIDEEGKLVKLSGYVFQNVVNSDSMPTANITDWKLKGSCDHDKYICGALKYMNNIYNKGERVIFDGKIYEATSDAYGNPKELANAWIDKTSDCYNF
UniProt A0A509AMC2: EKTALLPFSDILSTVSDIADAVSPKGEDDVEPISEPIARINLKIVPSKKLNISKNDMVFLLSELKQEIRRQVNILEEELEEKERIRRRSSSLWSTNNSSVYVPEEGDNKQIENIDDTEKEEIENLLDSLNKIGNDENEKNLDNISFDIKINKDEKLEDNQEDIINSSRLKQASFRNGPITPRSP
UniProt A0A509B0M9: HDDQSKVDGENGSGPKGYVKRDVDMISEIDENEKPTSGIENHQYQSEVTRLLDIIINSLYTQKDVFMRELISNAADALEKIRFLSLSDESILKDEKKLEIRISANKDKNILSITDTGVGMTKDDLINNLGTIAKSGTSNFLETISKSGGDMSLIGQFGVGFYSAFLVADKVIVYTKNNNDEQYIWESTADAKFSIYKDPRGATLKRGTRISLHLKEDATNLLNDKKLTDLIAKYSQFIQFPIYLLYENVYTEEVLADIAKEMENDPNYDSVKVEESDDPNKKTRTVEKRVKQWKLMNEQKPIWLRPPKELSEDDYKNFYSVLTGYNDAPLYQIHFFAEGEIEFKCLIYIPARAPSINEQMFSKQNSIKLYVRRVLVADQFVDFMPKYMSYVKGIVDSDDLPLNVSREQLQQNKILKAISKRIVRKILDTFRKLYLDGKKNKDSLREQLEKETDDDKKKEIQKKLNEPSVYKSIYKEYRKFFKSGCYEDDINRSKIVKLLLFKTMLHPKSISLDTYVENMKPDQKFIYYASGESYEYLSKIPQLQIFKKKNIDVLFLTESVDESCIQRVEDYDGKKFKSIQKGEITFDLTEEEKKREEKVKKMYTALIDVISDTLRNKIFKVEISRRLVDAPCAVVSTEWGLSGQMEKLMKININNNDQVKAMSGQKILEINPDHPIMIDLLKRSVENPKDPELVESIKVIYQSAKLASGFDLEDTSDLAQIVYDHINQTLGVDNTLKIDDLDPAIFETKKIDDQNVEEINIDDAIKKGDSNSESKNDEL
UniProt A0A509AQI1: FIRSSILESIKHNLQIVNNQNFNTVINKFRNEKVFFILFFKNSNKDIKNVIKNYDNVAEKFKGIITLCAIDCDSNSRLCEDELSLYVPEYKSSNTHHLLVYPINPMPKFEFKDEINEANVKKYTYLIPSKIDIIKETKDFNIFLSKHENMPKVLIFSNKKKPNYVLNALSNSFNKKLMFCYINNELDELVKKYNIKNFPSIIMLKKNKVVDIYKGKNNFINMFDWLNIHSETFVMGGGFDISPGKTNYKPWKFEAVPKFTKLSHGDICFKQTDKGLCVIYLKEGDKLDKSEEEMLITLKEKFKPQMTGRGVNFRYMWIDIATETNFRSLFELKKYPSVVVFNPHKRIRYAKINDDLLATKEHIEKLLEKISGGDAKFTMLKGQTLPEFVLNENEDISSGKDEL

B1: 6-cysteine protein (P47) (protein, UniProt Q9BMP8 21-409)
chain: YIIFPNGYVCDFKFNPLVNVLPSINTTGDIEEVGCTINNPSLSDYIALVCPKKNYNDYEHMEKVPSKCFSSNLYSPYKSEDSAHKLEELKIPEKYSISKDFSDFDLNIILIPSLYNIDKTIYCRCDNSKTKRELIKNDGENIKLQGKLGLVKIILNNQQNSPQNIYHITRSTQVGSLDNKVIELKEGEIVHLKYDGKTRTNFNCKEIINMKISIPLDYNLSMRMPTVFLKDINCKFHLIFSNVGGIANIVFKAKKTENIDGCDFTVPKGKGLYKNGFALSEINNDEEICTVHIGRGQNSNAAGLKCPYNLTPAHCFKHVLYEKKYKNGNNVFQTFLLDDVLRTVDIEYYYNAKLSAHIVGIPTIPEKSETVRCVCEHDGKKGIMELKIS
B2: PBANKA_0813300, conserved Plasmodium protein, unknown function (protein, UniProt A0A509AKT6 1-455)
chain: MIIDLFQSKKLIISIIILILRISLFSCAEHLFFNNNFNFFNFSENNHAKVNELNIDTKYLYQGLRNINIYLALSALNGITKEKINDISQWNGYKTRNNDETNISNVVVTEWKQLNKKSFFLKNNNISNNDNLIKGMPNPYFINSLTEDINNINLYFNIRNDIKYGEIIYKGTYIPHIYNNIFLIFLISYMYWFCIKILFNGYIKGKYVAKEYILKISTLFIFFVILKISLIFLPAILSCIVCLILTFYFYSISMSPCKDIFYLFESTRIKKEPIGWIIIVYAESILIGNVIYNFLCPPKIIIIFIRYIQNDFLVKIICLTIILFISFLIFFLMISNIFPAKKAQNFVFSFTSSYLIVSCFAYFWNIFLLRFLNNTNIFQIEPIMFFSYTPKFVFNRQNMFALFMIFAMSILSIIFPRIKKLKQNIFDMKENIYDSDIDIGKASKNRYNIILNYFT
B3: Plasmepsin VI (protein, UniProt A0A509AI82 1-441)
chain: MTNFCIKSYLFLYLSFLLFFDIITIFHVSSIRISTVLKNDKKKKNFNTSLVEENKKYLFNEIKLNNRFKNDIKGYIQNINNFHSIIESKIPNSLLYVHEDLINFHNSQFIGDIEIGNPPQSFKVVFDTGSSNFAIPSTKCVKGGCTLHNKFDAKKSRTFMSNLKNKKESIYTYVQYGTGKSILEHGYDDVYMKGLKINKQCIGLIIEESMHPFSDLPFDGIVGLGFSDPDNSFQTKYSKSLIETIKEQNLLQQNIFSFYVPKELEKSGAITFGRANSKYAIEGEKIEWFPVISMYFWEINLLGILLPDKNFEICSNKKCRAAVDTGSSLITGPSSLMQPLIENINLEKDCSNISSLPIISFVLKNVEGKTVILDFTPDDYILQENSEEDNSSQCVIGLMSLDIPPPRGPIFIFGNVFIRKYYTIFDNDHKLVGVVKSNHNF

Tests used:
[1] = target: LAP3 fused to GFP (LAP3::GFP) (Plasmodium berghei); experiment: affinity purification with mass spectrometry; GFP pull-down (anti-GFP microbeads, μMACS kit) from lysates (150 mM NaCl, 1% Triton X-100, 50 mM Tris-HCl pH 8.0) of ookinetes expressing LAP3::GFP after in vivo crosslinking with 1% paraformaldehyde; compared with non-crosslinked samples and LAP3-KO controls; LC-MS/MS with label free quantification; Table 1 lists the hits left after the filters (at least 2-fold enriched in crosslinked samples)
[2] = target: GFP-tagged TPM2 (TPM2/GFP) (Plasmodium berghei); experiment: affinity purification with mass spectrometry; GFP pull-down (anti-GFP microbeads, μMACS kit) from lysates of ookinetes expressing GFP-tagged TPM2 after in vivo crosslinking with 1% paraformaldehyde; compared with non-crosslinked samples; LC-MS/MS; Table 2 lists the hits left after the same filters

Molecule	binding [1]	binding [2]
Blood stage antigen 41-3 precursor, putative (PBANKA_0606200) (from UniProt A0A509AEX0)	binds	–
Crystalloid-specific PH domain-containing protein, putative (PBANKA_0704900) (from UniProt A0A509AJL0)	binds	binds
Hsp70/BiP (PBANKA_0818900) (from UniProt A0A509AJG0 22-651)	binds	–
Hsp110 (PBANKA_1357200) (from UniProt A0A509APN5)	binds	–
HspJ2 (PBANKA_0938300) (from UniProt A0A509AM83)	binds	–
LCCL domain-containing protein (LAP1) (from UniProt A0A509ANB6)	–	binds weakly
MOLO1 domain-containing protein, putative (TPM2) (from UniProt A0A509ALX4)	binds	–
PH domain-containing protein PBANKA_0417200 (from UniProt A0A509AFS2)	binds	binds
Secreted ookinete protein, putative (PSOP2) (from UniProt A0A509AML0)	binds	binds
Secreted ookinete protein, putative (PSOP7) (from UniProt A0A509ASW0)	binds	binds
Secreted ookinete protein, putative (PSOP12) (from UniProt A0A509ANV7)	binds	–
Secreted ookinete protein, putative (PSOP13) (from UniProt A0A509AMC2)	binds	binds
endoplasmin/Hsp90 (PBANKA_1437300) (from UniProt A0A509B0M9)	binds	–
putative protein disulphide isomerase PBANKA_0702800 (from UniProt A0A509AJZ7)	binds	–
putative protein disulphide isomerase PBANKA_0942500 (from UniProt A0A509AQI1)	binds	–
B1	binds	binds
B2	binds	–
B3	binds	–

These are yes or no findings as the source states them, for the method shown. In cells and extracts the contact can be indirect. These calls come from enrichment with a bait or labelling near it, and not all partners need be listed.
